In paper PMC5177663 (Frontiers in Pharmacology, 2016):

Test system: middle-aged mice
Test: contextual serial discrimination (CSD) task, contextual memory
Format: in vivo, C57/Bl6 mice
Conditions: for effect on total number of head-dips, test phase: Experiment 1, middle-aged mice, 9 days oral, all levels pooled of the other drug; for total number of head-dips, test phase: Experiment 2, middle-aged mice, mean ± SEM
Description: The memory task and apparatus has been fully described previously ([Chauveau et al., 2009]). The contextual serial discrimination (CSD) task is based on two successive discriminations in a four-hole board which can be retrieved with the help of specific temporal and contextual cues associated with each of them.
The acquisition phase took place in room A where animals learned two consecutive spatial discriminations (D1 and D2; Figure 1A) which differed by the color and texture of the floor and were separated by a 2-min delay interval. For both D1 and D2, 10 20-mg food pellets were available during the 6-min exploration sessions; for D2 specifically, the baited hole was consistently located in the opposite symmetrical hole. Environmental cues made of colored paper sheets were positioned at 1.00 m above the board. At the end of the acquisition phase, mice returned in the animal’s room for 24 h. Animals retained for the test phase in the present study for both Experiments 1 and 2 have eaten at least 7–8 pellets/10 during both acquisitions.
Mice were replaced on the D1 floor in the board without any pellet in the apparatus and were allowed to freely explore for 6 min during which the number of head-dips in each hole was counted. This allowed measures of the % of “correct responses” (head-dips into the hole previously baited on the same floor-context), the % of “interference responses” (head-dips into the hole previously baited at D2, on the other floor-context) (Figure 1B) and of the “strength” of “contextual memory” score (SCM) (% correct responses - % interference responses). Thus, since correct responses are based on the use of the internal context (color of the floor) and interferent responses are based on the use of spatial allocentric cues previously associated with the other floor, thus the trend of SCM score toward a positive difference represents the gain of internal contextual memory, at the expense of allocentric spatial one.
The two last administrations were delivered 1 h before the acquisition and test phases.
Independent groups of mice (N = 10 per group) were used. An additional group composed by young vehicle mice (4–5 months young-vehicles, N = 10) was added for determination of the aging effect on both memory and phosphorylated CREB immunoreactivities, as compared to middle-aged Vehicles. For the immunohistochemical study, animals submitted to D1 memory testing were compared to “naïve” mice isolated in the colony room (with N = 5 per group; Naïve condition) and that underwent the food deprivation procedure and drug treatments as behaving animals (Test condition).

Compound | effect on total number of head-dips, test phase | total number of head-dips, test phase (Donepezil 0.3 mg/kg alone) | total number of head-dips, test phase (S 38093 0.1 mg/kg alone) | total number of head-dips, test phase (S 38093 0.3 mg/kg alone)
COc1cc2c(cc1OC)C(=O)C(CC1CCN(Cc3ccccc3)CC1)C2 (centres unmarked) [Donepezil, reference compound] | no significant effect | 23.90 ± 4.06 |  | 
NC(=O)c1ccc(OCCCN2CC3CCCC3C2)cc1 (centres unmarked) [S 38093] | no significant effect |  | 37.4 ± 6.15 | 44.90 ± 6.56
